Source: the supplement of paper PMC12823440, “Inhibitors supercharge kinase turnover through native proteolytic circuits” (Nature, 2025)
Structures can show the parent of a compound that is named as a salt. The list shows a part of the results. The calls rarely recur for the same compound in another form.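 Kinases were expressed as nanoluciferase fusions in K562 cells and luminescence was read every 4 h between 2 and 18 h as percent of control, DMSO set to 100% and a positive control to 0%. A time point counts as decreased when the signal drops significantly (2 sigma). The hit call is the authors' own, does not follow from the count of time points alone, and its rule is not shown.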

Amino acid sequences for entries named in this document (tags omitted). A change or cut given only in a name is not applied to a line headed by its entry.
UniProt Q8IWU2: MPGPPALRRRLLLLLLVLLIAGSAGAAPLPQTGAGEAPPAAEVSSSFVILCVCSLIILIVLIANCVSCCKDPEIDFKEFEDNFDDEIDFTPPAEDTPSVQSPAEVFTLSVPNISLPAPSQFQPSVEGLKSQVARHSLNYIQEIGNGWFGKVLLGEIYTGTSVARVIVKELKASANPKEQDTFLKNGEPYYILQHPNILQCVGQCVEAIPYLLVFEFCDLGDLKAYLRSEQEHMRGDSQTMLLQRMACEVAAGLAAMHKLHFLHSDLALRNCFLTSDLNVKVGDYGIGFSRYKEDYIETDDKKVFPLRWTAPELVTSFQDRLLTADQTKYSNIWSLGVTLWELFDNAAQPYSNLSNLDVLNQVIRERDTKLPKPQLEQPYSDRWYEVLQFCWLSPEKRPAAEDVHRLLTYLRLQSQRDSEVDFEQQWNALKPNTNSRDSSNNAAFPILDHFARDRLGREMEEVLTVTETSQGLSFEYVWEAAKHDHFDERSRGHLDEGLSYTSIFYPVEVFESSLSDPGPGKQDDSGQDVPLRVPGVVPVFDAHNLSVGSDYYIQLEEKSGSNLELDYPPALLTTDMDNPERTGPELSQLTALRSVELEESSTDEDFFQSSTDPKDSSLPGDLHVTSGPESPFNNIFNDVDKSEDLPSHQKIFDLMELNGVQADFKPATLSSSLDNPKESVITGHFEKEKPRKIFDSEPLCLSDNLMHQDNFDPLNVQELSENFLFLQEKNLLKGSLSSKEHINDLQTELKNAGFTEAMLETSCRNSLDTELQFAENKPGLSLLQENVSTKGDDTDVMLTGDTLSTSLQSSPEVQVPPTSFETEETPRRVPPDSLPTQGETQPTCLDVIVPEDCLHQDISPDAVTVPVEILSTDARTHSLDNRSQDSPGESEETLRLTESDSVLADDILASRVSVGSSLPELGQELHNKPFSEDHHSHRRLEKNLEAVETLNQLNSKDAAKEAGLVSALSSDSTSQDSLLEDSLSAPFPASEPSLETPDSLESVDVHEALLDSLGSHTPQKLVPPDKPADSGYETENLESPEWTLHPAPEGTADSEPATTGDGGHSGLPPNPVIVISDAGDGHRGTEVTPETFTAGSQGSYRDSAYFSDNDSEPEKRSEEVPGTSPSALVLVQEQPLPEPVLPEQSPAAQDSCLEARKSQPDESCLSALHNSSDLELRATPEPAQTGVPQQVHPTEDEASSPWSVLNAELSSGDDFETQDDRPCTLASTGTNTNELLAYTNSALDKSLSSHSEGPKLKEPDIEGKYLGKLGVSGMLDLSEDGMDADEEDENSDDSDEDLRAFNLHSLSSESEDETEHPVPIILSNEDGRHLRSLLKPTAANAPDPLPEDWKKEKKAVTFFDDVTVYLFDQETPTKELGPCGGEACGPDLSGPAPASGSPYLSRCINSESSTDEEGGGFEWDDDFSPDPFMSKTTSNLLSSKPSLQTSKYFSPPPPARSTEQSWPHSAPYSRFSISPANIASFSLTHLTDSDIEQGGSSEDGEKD
UniProt P07948: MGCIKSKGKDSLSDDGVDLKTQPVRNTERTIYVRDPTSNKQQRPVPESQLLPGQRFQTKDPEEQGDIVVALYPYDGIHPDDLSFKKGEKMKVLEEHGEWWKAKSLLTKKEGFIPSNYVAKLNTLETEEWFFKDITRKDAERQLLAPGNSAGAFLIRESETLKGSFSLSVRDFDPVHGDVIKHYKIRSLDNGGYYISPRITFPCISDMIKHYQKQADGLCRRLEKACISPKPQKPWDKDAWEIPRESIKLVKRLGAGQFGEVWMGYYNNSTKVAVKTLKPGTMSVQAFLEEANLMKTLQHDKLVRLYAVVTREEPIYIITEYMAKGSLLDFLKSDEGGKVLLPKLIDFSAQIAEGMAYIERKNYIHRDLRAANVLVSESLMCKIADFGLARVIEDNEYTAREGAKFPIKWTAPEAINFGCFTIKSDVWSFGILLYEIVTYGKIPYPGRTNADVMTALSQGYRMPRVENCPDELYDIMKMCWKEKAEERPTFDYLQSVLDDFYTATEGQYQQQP
UniProt Q12851: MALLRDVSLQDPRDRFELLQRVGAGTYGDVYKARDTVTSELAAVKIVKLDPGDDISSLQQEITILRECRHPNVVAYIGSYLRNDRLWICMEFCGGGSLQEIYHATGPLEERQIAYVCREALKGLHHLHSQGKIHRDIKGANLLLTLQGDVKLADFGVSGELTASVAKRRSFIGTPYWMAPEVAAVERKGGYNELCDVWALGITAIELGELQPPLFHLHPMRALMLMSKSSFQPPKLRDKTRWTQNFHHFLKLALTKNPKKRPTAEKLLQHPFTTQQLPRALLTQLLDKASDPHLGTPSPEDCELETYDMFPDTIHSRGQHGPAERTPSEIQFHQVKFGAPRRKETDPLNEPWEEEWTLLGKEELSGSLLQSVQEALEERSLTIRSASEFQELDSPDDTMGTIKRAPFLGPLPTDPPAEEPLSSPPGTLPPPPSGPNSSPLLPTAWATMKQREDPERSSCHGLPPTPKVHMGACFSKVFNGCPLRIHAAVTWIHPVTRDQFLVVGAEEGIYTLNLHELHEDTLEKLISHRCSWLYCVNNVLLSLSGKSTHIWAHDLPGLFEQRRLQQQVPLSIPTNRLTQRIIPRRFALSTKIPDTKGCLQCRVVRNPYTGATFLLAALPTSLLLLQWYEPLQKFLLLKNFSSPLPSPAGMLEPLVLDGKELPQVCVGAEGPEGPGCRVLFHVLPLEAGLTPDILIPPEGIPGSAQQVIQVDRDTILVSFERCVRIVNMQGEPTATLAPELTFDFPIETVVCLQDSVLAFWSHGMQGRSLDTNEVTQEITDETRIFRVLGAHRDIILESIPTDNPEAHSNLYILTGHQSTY
UniProt P28482, whole entry: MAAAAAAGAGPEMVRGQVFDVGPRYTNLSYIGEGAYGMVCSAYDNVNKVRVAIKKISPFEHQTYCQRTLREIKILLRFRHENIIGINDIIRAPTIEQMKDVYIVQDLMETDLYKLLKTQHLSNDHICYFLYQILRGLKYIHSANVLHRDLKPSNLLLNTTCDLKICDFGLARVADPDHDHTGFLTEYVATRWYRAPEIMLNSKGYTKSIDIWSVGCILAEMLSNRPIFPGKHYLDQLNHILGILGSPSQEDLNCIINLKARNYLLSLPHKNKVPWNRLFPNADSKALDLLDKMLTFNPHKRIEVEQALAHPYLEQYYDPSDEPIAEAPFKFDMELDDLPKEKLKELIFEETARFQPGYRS
UniProt P31152, whole entry: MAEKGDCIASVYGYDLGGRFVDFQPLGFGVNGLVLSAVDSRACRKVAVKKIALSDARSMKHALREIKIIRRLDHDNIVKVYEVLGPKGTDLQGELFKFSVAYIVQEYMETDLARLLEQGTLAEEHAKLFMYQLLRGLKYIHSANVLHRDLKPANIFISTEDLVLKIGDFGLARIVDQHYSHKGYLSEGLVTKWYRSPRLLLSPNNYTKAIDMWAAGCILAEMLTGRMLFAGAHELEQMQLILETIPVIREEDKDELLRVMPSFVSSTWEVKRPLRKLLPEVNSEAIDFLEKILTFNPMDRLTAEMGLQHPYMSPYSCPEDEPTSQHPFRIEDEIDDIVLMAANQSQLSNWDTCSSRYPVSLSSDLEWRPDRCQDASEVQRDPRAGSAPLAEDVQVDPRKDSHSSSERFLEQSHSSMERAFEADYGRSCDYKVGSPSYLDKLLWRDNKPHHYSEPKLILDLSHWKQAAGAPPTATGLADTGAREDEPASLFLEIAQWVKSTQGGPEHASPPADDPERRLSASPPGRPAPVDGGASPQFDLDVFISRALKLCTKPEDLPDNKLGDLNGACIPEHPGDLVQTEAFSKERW
UniProt P49137, whole entry, looked up: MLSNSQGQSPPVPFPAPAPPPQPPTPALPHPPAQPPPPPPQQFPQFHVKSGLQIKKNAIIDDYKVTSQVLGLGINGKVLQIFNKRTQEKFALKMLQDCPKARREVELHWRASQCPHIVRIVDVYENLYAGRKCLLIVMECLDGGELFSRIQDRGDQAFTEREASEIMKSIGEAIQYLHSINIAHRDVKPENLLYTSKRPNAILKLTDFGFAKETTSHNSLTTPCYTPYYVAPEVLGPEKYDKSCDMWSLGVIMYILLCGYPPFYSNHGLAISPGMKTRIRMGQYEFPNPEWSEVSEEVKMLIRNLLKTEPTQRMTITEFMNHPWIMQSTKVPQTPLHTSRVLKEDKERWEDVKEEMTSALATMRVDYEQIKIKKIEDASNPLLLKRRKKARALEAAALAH
UniProt Q9BUB5: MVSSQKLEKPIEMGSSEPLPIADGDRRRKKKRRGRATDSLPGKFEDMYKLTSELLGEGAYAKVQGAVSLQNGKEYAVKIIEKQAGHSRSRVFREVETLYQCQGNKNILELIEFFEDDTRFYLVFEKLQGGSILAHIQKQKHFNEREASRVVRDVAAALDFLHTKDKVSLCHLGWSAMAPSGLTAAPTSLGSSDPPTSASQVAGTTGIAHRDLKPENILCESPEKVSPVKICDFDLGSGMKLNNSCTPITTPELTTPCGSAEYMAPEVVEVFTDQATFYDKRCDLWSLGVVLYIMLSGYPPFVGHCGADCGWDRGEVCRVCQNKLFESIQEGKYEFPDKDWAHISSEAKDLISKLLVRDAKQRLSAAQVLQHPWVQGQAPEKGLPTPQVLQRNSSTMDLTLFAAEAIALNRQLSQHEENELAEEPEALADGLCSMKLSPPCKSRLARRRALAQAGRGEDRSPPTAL
UniProt Q16620, whole entry, looked up: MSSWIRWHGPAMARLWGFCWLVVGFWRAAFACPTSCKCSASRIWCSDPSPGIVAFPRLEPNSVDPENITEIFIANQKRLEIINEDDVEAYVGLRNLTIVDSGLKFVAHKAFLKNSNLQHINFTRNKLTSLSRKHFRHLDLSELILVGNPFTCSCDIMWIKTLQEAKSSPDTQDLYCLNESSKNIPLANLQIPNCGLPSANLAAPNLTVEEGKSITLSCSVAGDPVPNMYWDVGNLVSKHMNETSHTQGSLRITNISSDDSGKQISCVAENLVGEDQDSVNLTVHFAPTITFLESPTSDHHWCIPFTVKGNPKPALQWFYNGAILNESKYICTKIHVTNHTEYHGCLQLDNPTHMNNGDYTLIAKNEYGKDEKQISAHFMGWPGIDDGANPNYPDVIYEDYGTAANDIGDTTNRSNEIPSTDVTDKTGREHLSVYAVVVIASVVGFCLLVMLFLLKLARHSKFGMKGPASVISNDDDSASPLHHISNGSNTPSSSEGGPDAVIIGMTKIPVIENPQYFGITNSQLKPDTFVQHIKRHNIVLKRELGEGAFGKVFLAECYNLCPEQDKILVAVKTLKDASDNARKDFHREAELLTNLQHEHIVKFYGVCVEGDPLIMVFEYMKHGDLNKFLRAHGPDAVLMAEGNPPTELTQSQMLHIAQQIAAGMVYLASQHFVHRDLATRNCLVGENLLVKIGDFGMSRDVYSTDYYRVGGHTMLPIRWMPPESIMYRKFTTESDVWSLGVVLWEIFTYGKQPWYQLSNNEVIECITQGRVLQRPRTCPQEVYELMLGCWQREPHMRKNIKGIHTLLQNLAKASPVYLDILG

Legend:
Assay in all cases: number of time points (of 5) at which kinase-Nluc abundance scored as decreased, DMSO-normalised (count); higher = more persistent destabilization
Conditions in all cases: K562; 2-18 h
LMTK2 = LMTK2 (UniProt Q8IWU2)
LYN = LYN (UniProt P07948)
MAP2K1 = MAP2K1 (UniProt Q02750)
MAP2K2 = MAP2K2 (UniProt P36507)
MAP4K2 = MAP4K2 (UniProt Q12851)
MAPK1 = MAPK1 (UniProt P28482)
MAPK4 = MAPK4 (UniProt P31152)
MAPKAPK2 = MAPKAPK2 (UniProt P49137)
MKNK1 = MKNK1 (UniProt Q9BUB5)
NTRK2 = NTRK2 (UniProt Q16620)

SMILES	number of time points (LMTK2)	number of time points (LYN)	number of time points (MAP2K1)	number of time points (MAP2K2)	number of time points (MAP4K2)	number of time points (MAPK1)	number of time points (MAPK4)	number of time points (MAPKAPK2)	number of time points (MKNK1)	number of time points (NTRK2)
O=c1cc(CN2CCOCC2)occ1OCCCCCSc1ccnc2cc(C(F)(F)F)ccc12 (10 µM)	0	0	0	0	0	0	0	0	0	0
C[C@H](c1ccnc(Nc2nc3ccc(-c4cc(N(C)C)ncn4)cc3[nH]2)c1)N1CCN(C(=O)CC(F)(F)F)CC1 (2.5 µM)	0	0	0	0	0	0	0	0	0	0
Cc1c(NC(=O)c2cccn(-c3ccc(F)cc3)c2=O)ccc(Oc2ccnc(NC(=O)C3CC3)c2)c1C (2 µM)	0	0	0	0	0	0	0	0	3	0
COc1cc2ncnc(Nc3ccc(Cl)cc3F)c2cc1OC (10 µM)	0	0	0	0	0	0	0	0	1	0
Cc1cc(O)c2c(c1)C(=O)c1cc(O)cc(O)c1C2=O [Emodin] (10 µM)	0	0	0	0	0	0	0	0	0	0
NC(=O)c1nnc(N[C@@H]2CCCC[C@@H]2N)nc1Nc1cccc2cc[nH]c12 (10 µM)	0	0	0	0	0	0	0	0	0	0
Oc1cc(O)c2cc(O)c(-c3cc(O)c(O)c(O)c3)[o+]c2c1 [Delphinidin (chloride)] (10 µM)	0	1	0	0	0	2	0	0	0	0
CC#CC(=O)N1CC[C@@H](n2c(=O)n(-c3ccc(Oc4ccccc4)cc3)c3c(N)ncnc32)C1 [Tirabrutinib (hydrochloride)] (10 µM)	0	0	0	0	0	0	0	0	0	0
CCNc1nc(Nc2cc(F)c(C(=O)N3CCOCC3)cc2OC)ncc1C(F)(F)F [GNE-7915 (tosylate)] (10 µM)	0	0	0	0	0	0	0	0	0	0
COc1cc2nccc(Oc3ccc(NC(=O)NC4CC4)c(Cl)c3)c2cc1C(N)=O [Lenvatinib] (10 µM)	0	0	0	0	0	0	0	0	0	0
Oc1ccc(Nc2nc(-c3ccc(Cl)cc3)cs2)cc1 (10 µM)	0	0	0	0	0	0	0	0	0	0
Cn1cc(-c2cnn3c(N)c(Br)c([C@@H]4CCCNC4)nc23)cn1 (2.5 µM)	1	1	0	0	0	0	0	0	1	2
CC(C)(O)CNc1ncc(-c2ccnc(Nc3ccnc(Cl)c3)n2)c(CC2CC2)n1 (2.5 µM)	0	0	0	0	0	0	0	0	0	0
NC(=O)c1ccc2[nH]ccc2c1 (10 µM)	0	0	0	0	0	0	0	0	0	0
O=C(NCCN1CCOCC1)c1cc2c(Oc3ccc(NC(=O)C4(C(=O)Nc5ccc(F)cc5)CC4)cc3)ccnc2[nH]1 [Tyrosine kinase inhibitor] (10 µM)	0	0	0	0	0	0	0	0	0	0
N#Cc1c(C2CCNCC2)cc(-c2c(O)cccc2OCC2CC2)nc1N [ACHP (Hydrochloride)] (10 µM)	0	0	0	0	0	0	0	0	0	0
CCOC(=O)N1CCN(C(=O)[C@H](Cc2cccc(C(=N)N)c2)NS(=O)(=O)c2c(C(C)C)cc(C(C)C)cc2C(C)C)CC1 (10 µM)	0	0	0	0	0	0	0	0	0	0
c1cncc(CN2CCC(n3ncc4c(N5CCOCC5)nc(-c5ccc6[nH]ccc6c5)nc43)CC2)c1 (10 µM)	0	1	0	0	0	0	0	0	1	3
COc1cc2nccc(Oc3ccc(NC(=O)NC4CC4)c(Cl)c3)c2cc1C(N)=O [Lenvatinib (mesylate)] (10 µM)	0	0	0	0	0	0	0	0	1	1

SMILES	number of time points (LMTK2)	number of time points (LYN)	number of time points (MAP2K1)	number of time points (MAP2K2)	number of time points (MAP4K2)	number of time points (MAPK1)	number of time points (MAPK4)	number of time points (MAPKAPK2)	number of time points (MKNK1)	number of time points (NTRK2)
O=Nc1c(-c2c(O)[nH]c3ccc(F)cc23)[nH]c2ccccc12 [5'-Fluoroindirubinoxime] (10 µM)	0	0	0	0	0	0	0	0	0	0
COc1ccc(Cl)c(Nc2nc3ccccc3nc2NS(=O)(=O)c2cccc(NC(=O)C(C)(C)N)c2)c1 [Pilaralisib] (10 µM)	0	0	0	0	0	0	0	0	0	0
CNC(=O)c1ccc(C)c(-n2c(C)cc(OCc3ccc(F)cc3F)c(Br)c2=O)c1 (10 µM)	0	0	0	0	0	0	0	0	0	0
c1ccc(-c2[nH]ncc2-c2ccnc3ccccc23)nc1 (10 µM)	0	0	0	0	0	0	0	0	0	0
Cc1cc(CN2CCN(c3c(Br)cnc4nc(-c5ccc(N6CCN(C)CC6)cc5)[nH]c34)CC2)no1 (2.5 µM)	0	0	0	0	0	0	0	0	0	0
FC(F)c1nc2ccccc2n1-c1nc(N2CCOCC2)nc(N2CCOCC2)n1 (2 µM)	0	0	0	0	0	0	0	0	0	0
C[C@@H](c1ccc(F)cc1)n1nnc2cnc3ccc(-c4ccc5ocnc5c4)cc3c21 (10 µM)	0	0	0	0	0	0	0	0	0	0
COc1cc(Nc2ncc(F)c(Nc3ccc4c(n3)N(COP(=O)(O)O)C(=O)C(C)(C)O4)n2)cc(OC)c1OC [Fostamatinib (disodium hexahydrate)] (10 µM)	0	0	0	0	0	0	0	0	0	0
CCN1CCN(Cc2ccc(-c3cc4c(N[C@H](C)c5ccccc5)ncnc4[nH]3)cc2)CC1 (2.5 µM)	0	0	0	0	0	0	1	0	0	1
COc1cc2ncc(-c3ccccc3)nc2cc1OC [Tyrphostin AG1296] (10 µM)	0	0	0	0	0	0	0	0	0	0
Nc1ncnc2c1c(-c1ccc(Oc3ccccc3)cc1)nn2C1CCCC1 (2.5 µM)	0	0	0	0	0	0	0	0	0	0
Cn1nccc1Nc1nccc(-c2ccn([C@H](CO)c3ccc(Cl)c(F)c3)c(=O)c2)n1 [Ravoxertinib] (10 µM)	0	0	0	0	0	0	0	0	0	0
Cc1cc2ncc(-c3ccc(O)c(O)c3)nc2cc1C [Tyrphostin AG1433] (10 µM)	0	0	0	0	0	0	0	0	0	0
Nc1ccc(-c2cnc(N)c(-c3ccc(Cl)cc3)c2)cn1 (10 µM)	0	0	0	0	0	0	0	0	0	0
O=C(N/N=C/c1coc2ccccc2c1=O)c1cccnc1 (10 µM)	0	0	0	0	0	0	0	0	0	0
Cc1nc(-c2cn3c(n2)-c2ccc(-c4cnn(C(C)(C)C(N)=O)c4)cc2OCC3)n(C(C)C)n1 [Taselisib] (10 µM)	0	0	0	0	0	0	0	0	0	0
CCc1cc2c(cc1N1CCC(N3CCOCC3)CC1)C(C)(C)c1[nH]c3cc(C#N)ccc3c1C2=O [Alectinib] (10 µM)	0	0	0	0	0	0	0	0	0	0
C=CC(=O)Nc1cc(C)ccc1Nc1nc(Nc2cc(OC)ncc2C)ncc1C(F)(F)F (10 µM)	0	0	0	0	0	0	0	0	0	0
C=CC(=O)Nc1cccc(Nc2nc(Nc3ccc(N4CCN(C(C)=O)CC4)cc3OC)ncc2C(F)(F)F)c1 [Rociletinib] (10 µM)	0	0	0	0	0	0	0	0	0	0

Individual results from the results shown.
For number of time points (NTRK2), O=Nc1c(-c2c(O)[nH]c3ccc(F)cc23)[nH]c2ccccc12 [5'-Fluoroindirubinoxime] (10 µM) is entered as 0
For number of time points (MAPKAPK2), CNC(=O)c1ccc(C)c(-n2c(C)cc(OCc3ccc(F)cc3F)c(Br)c2=O)c1 (10 µM) is entered as 0
